No constants are given. Whether binding was seen depends on the method and setting. In cells and extracts the contact can be indirect. Some entries that bind do so weakly or less than the wild type.
Molecular target: Bcl-2-associated X protein (human (endogenous in 143B and MG63)) (UniProt Q07812)
Test: co-IP; proteins extracted from CPT-treated 143B and MG63 cells (time course of CPT treatment); IP with Bax antibody; Drp1 and Bax detected by Western blotting

Chains of the proteins cited; added tags and fusions are not shown.
UniProt Q07812: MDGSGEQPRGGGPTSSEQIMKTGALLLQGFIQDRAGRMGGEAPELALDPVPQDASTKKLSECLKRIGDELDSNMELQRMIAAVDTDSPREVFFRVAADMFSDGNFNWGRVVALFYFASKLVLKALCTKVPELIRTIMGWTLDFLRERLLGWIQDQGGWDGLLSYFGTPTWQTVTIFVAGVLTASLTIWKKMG
UniProt O00429: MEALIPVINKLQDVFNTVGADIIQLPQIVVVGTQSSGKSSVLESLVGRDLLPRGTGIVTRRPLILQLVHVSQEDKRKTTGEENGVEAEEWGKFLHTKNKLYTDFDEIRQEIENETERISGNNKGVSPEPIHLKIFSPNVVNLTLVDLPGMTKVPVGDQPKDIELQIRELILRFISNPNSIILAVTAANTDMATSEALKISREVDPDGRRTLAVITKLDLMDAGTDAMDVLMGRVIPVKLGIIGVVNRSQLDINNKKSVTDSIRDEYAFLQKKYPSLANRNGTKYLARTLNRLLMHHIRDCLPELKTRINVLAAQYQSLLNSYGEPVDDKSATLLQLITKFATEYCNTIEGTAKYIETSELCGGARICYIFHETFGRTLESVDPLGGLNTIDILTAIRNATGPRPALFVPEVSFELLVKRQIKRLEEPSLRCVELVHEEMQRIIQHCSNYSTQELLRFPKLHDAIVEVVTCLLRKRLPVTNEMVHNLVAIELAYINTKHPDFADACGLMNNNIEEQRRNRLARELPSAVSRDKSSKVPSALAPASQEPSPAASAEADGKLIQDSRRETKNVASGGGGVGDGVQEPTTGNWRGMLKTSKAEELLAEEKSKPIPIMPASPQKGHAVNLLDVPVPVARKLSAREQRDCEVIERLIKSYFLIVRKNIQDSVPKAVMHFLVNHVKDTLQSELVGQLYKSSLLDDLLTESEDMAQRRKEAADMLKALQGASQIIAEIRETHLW

Substance: dynamin-related protein 1 (from UniProt O00429 1-736)
- binding: binds

Source: publication PMC6350405
